Laboratory results: publication PMC7807878, “Development of an engineered peptide antagonist against periostin to overcome doxorubicin resistance in breast cancer” (BMC Cancer, 2021)
Results are given in words; binding and its absence hold for the method and conditions named. Some binding calls cover weakened binding; strength is not graded here.

Protein sequences, listed by entry. Tags and fused reporters are not part of them. Residues count along the entry.
UniProt P02769, residues 25-607: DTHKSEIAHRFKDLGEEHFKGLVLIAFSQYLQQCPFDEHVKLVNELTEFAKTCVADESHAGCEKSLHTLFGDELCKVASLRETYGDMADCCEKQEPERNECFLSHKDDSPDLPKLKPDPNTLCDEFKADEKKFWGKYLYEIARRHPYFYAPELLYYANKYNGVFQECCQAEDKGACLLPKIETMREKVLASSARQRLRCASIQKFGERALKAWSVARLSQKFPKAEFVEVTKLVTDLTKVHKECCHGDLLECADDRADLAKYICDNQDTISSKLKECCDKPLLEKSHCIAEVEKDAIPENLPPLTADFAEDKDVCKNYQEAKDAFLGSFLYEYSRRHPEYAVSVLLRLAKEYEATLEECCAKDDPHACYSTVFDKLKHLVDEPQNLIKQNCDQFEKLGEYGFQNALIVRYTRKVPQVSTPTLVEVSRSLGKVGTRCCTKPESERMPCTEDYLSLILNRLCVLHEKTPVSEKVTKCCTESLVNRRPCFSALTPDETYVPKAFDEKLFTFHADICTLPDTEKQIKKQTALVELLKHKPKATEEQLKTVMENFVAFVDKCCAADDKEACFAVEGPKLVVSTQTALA

T1: recombinant PN (rPN) (UniProt Q15063)
T1 sequence: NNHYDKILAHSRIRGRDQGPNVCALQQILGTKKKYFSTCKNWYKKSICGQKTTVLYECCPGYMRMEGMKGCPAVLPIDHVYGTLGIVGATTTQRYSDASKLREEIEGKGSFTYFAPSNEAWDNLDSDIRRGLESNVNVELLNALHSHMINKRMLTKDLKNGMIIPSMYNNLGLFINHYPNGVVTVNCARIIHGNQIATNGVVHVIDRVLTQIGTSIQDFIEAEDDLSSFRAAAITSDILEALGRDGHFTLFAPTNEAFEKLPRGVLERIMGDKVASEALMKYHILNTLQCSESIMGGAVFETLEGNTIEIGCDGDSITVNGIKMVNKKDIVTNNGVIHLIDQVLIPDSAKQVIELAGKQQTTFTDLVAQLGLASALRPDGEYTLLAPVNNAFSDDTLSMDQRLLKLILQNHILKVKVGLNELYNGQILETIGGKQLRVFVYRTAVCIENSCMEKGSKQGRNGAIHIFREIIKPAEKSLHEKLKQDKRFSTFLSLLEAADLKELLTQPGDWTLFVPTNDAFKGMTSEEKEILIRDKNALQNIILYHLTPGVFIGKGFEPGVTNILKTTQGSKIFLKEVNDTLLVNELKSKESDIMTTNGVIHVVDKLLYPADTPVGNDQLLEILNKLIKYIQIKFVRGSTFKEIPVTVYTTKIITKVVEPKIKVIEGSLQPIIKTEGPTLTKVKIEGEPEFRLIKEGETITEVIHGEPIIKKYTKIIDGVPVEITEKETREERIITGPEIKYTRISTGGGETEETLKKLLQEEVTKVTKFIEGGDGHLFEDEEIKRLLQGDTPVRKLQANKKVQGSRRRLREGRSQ

B1: selected phage clone displaying … (peptide)
peptide: TFATHGKHWAAP
B2: plain anti-PN peptide (peptide)
peptide: TFATHGKHWAAP

Tests used:
[1] = molecular target: T1, recombinant PN (rPN); test: far-Western, overlay or dot blot; 500 ng rPN or BSA in 1 ul spotted on nitrocellulose, blocked with 5% BSA; selected or blank phage (10^12 pfu in 50 ul) at 4 °C overnight; detected with anti-M13 antibody-HRP and ECL; both purified
[2] = molecular target: bovine serum albumin (bovine) (UniProt P02769); test: ITC; MicroCal PEAQ-ITC; 700 nM rPN (or BSA) and 100 nM plain anti-PN peptide in 50 mM Tris, 150 mM NaCl, pH 7.5, in syringe and cell compartments; both purified

| Binder | binding [1] | binding [2] |
| --- | --- | --- |
| B1 | binds |  |
| B2 |  | no binding (tested: 700 nM) |
